Data as given in US20230295058A1, “SYSTEMS AND METHODS FOR GENERATION OF HYPERPOLARIZED COMPOUNDS USING PARAHYDROGEN” (NVISION IMAGING TECHNOLOGIES GMBH, priority 2020, published 2023).

Test: 13C hyperpolarization before and after precipitation and redissolution
Type: physicochemical
Conditions: 1-13C

O=C([O-])/C=C/[13C](=O)[O-].[Na+].[Na+] [sodium fumarate, sodium fumarate-1-^13C]
hyperpolarization before precipitation (after further finetuning of the process parameters): 45%
hyperpolarization after precipitation and redissolution (redissolved in D2O containing sodium bicarbonate (300 mM), after further finetuning): 25%
